Source: doi:10.1101/843821

Columns and labels:
[1] = biological target: His6-3×Flag fused Mmp-RpoL (Mmp-RpoL-HF) (Methanococcus maripaludis); test: pull-down
[2] = biological target: His6-3×Flag fused Mmp-RpoL (Mmp-RpoL-HF) (Methanococcus maripaludis); test: tandem affinity purification
[3] = biological target: His6-3×Flag fused Mmp-RpoL (Mmp-RpoL-HF) (Methanococcus maripaludis); test: co-IP

Measured: binding

B1: Mmp-aCPSF1 (enzyme, UniProt Q6LZD5 1-635)
chain: MSAEDILNEIKAAVINKAPGNAVITDVEFEGSEVVIYAKNPELFSNNLIKEFARDFRKRLAIRPDPSVLVEPDIAKDKILKIVPEDAEITNCIFDANTGEVIIESKKPGLVIGKEGSTLEDIKKAIQWAPKPVRTPPIPSDTIKAIRATMYRERADVKDILRRIGRRIHRDVRLRDDSWVRTSFLGGSREVGRTCLYHQTPESRILVDCGINIAVEDEKAFPHFDAPEFSIEEIDAVVVTHAHLDHCGFIPGLFRYGYDGPVYCTKPTRDLMTLLQKDYVDITEKEGKNVPYSSKDIKNCIKHTIPLDYGVTTDIAPAIKLTMHNAGHILGSAIAHCHVGDGLYNVAYTGDIKFEASRLLEPAVCQFPRLETLIIESTYGGYDDVLPERDETEKEFLRVIAETIARKGKAIIPVFGIGRAQELMLVLEEGYNQGIFNAPVYLDGMIWEATAIHTAYPEYLSKNMRNRIFHEGDNPFLSEVFKKVKNTNDRRNIMDSDEPGIILTTSGMLSGGPSVEYFKNLADDEKNSIVFVGYQSEGTLGRKIQKGFKEIPLMGKNGRSKAVKVNLSVHTLEGFSGHSDRKQLIKYLRKLKPIPDRILTVHGEVSKCIDLASTAYKLFKKETKAPMNLDSIRLR
binds: all assays above

These are yes or no findings as the source states them, for the method shown. A result given as binding can be weak or reduced; the word gives no strength. For part of these data: Binding seen in cells or lysates may run through a third protein.
